± gives the standard deviation. The entries are a selection whose mix differs from that of the whole data set. The uncertainty is large for many entries.

The subject of the test is MILI (PIWIL2) piRISC loaded with Kctd7 piRNA (26 nt). The test can be described thus: pre-steady-state target cleavage rate (min^-1); MIWI and MILI are mouse PIWI proteins and EfPiwi is from a freshwater sponge; tags in brackets are library labels; higher = faster piRNA-guided slicing of the target. The note with it: guide: Kctd7 piRNA 5'p-UGUUAAUCUCUCAGAGAAGGUGACAG; auxiliary factor: 500 nM mouse GTSF1. The essentials:
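Cleave-'n-Seq used a transcribed, DNA-blocked target RNA library at 0.1 nM and active affinity-purified piRISC with one synthetic guide at 1 nM, with or without 500 nM GTSF1 partner protein, in HEPES–potassium acetate buffer at 33 °C for 0–8 or 0–960 min. Uncleaved targets were sequenced and normalised to depth and to weakly complementary targets, and three trials were pooled with k3 capped at 0.0001 min^-1. The pre-steady-state cleavage rate was estimated by a burst-and-steady-state fit.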
In the case of UAGUGACAGACCUUCUGAGAGAGAUUUUGA, the “pre-steady-state target cleavage rate” value is 0.000539 ± 0.016.
With UAGUGACAGUCCUUCUCUGAGUGAAUAACA, the “pre-steady-state target cleavage rate” value was 0.000155 ± 0.016.
Consider UAGUGACUCACCUUCUCUGAGUGAUUUUGA, for which the “pre-steady-state target cleavage rate” value was 0.000532 ± 0.016.
Turning to UAGUGACAGUGGAACUCUGAGACAUUAUCA, the “pre-steady-state target cleavage rate” value is 0.00127 ± 0.015.
Regarding UAGUGACAGUGGUUCUCUGAGAGACUAACA, the “pre-steady-state target cleavage rate” value came to 0.000316 ± 0.0089.
With UAGUGACUCACCUUGUCUGAGAGAUUUUGA, the “pre-steady-state target cleavage rate” value amounted to 0.000692 ± 0.022.
With UAGUGACAGUCCUUCUCUGACUCAUUAUGA, the “pre-steady-state target cleavage rate” value came out at 0.00021 ± 0.01.
Turning to UAGUGACAGUCCUUCUCUGAGAGAAUUACA, the “pre-steady-state target cleavage rate” value came out at 0.000434 ± 0.018.
Take UAGUGACAGUCGUUCUCUGAGAGAUUAUGA: the “pre-steady-state target cleavage rate” value was found to be 0.00102 ± 0.0076.
On to UAGUGACUCAGCUUCUCUGAGAGAUUUUGA, for which the “pre-steady-state target cleavage rate” value was determined as 0.000781 ± 0.0093.
Regarding UAGUGACAGUCCUUCUGUGAGACAUUAACA, the “pre-steady-state target cleavage rate” value came to 0.00233 ± 0.0027.
UAGUGACAGUGGAACUCUGAGAGAUAUAACA: the “pre-steady-state target cleavage rate” value came out at 0.000112 ± 0.065.
To UAGUGACAGUGCUUCUCUGACAGAUUAACA belongs 0.00306 ± 0.0034; to UAGUGACACAGCUUCUCUGAGAGAUAUUGA, 0.00045 ± 0.015; to UAGUGACAGUCCUUGUCUGAGUGAUUAACA, 0.00245 ± 0.0033.
For the sequence UAGUGACAGUGGAACACUGAGACAUUAACA, the “pre-steady-state target cleavage rate” value was under 0.0001.
To UAGUCUGUCACCUUCUCUGAGUCAUUAACA belongs 0.00172 ± 0.0036; to UAGUGUGUCACCUUCUCUCUGAGAUUAUGA, 0.00157 ± 0.0072; to UAGUCUGUCACCAUCUCUGACAGAUUAACA, 0.00219 ± 0.0049.
As to UAGUGACUCACCUUCUCUGAGAGCUUAACA, the “pre-steady-state target cleavage rate” value is 0.156 ± 0.022.
As for UAGUGUGUCACCUUCUCGGAGAGAUUAACA, the “pre-steady-state target cleavage rate” value was determined as 0.153 ± 0.017.
Regarding UAGUGACAGACCUUCUCUGAGUCUUUAUGA, the “pre-steady-state target cleavage rate” value amounted to 0.000359 ± 0.031.
With UAGUGUGUCACCUUGACUGAGAGAUUAAGA, the “pre-steady-state target cleavage rate” value was determined as 0.000821 ± 0.013.
Turning to UAGUGUGUCACCUUCUGUGAGAGAUAUUGA, the “pre-steady-state target cleavage rate” value amounted to 0.00247 ± 0.0059.
UAGUGACACACCUUCUCUGAGUGAUAAACA: the “pre-steady-state target cleavage rate” value was 0.000894 ± 0.011.
Take UAGUGACAGACCUACUCAGAGAGAUUAACA: the “pre-steady-state target cleavage rate” value was determined as 0.00424 ± 0.0043.
With UAGUGACAGUGGAAGUCUGAGAGAGUAACA, the “pre-steady-state target cleavage rate” value amounted to 0.000103 ± 0.045.
Turning to UAGUGACAGACCAUCUCUGAGAGAUAAACA, the “pre-steady-state target cleavage rate” value was determined as 0.00361 ± 0.0041.
In the case of UAGUGACAGUCCUUCUCUGAGAGUUUAUGA, the “pre-steady-state target cleavage rate” value worked out at 0.000175 ± 0.042.
On to UAGUCUGUCUGGUUCUCUGAGAGAUUAUGA, for which the “pre-steady-state target cleavage rate” value amounted to 0.00125 ± 0.0042.
As for UAGUGAGUGACCUUCUCUGAGAGAUUAACA, the “pre-steady-state target cleavage rate” value is 0.157 ± 0.0097.
The value for UAGUGACAGACCUUCAGAGAGAGAUUAUGA was 0.000511 ± 0.022.
For the sequence UAGUCUGUCACCUUCUCUGAGAGAUUAAUCA, the “pre-steady-state target cleavage rate” value was determined as 0.258 ± 0.041.
To UAGUGUGUCACCUUCUCUCUGAGAUUAAGA belongs 0.00143 ± 0.0099.
As to UAGUGAGUCACCUUCUUGAGAGAUUAACA, the “pre-steady-state target cleavage rate” value turned out to be 0.0386 ± 0.014.
For the sequence UAGUGACUCACCAUCUCUGAGUGAUUAACA, the “pre-steady-state target cleavage rate” value worked out at 0.00224 ± 0.0041.
Consider UAGUGACAGACCUUCUCUGAGACGAUUAACA, for which the “pre-steady-state target cleavage rate” value came out at 0.0176 ± 0.0081.
To UAGUGACAGACCUUGUCUGAGAGAUUAUGA belongs 0.000569 ± 0.017; to UAGUGACACACCAUCUCUGAGAGAUUUUGA, 0.00176 ± 0.007.
As to UAGUGAGUCUGCUUCUCUGAGAGAUAUUGA, the “pre-steady-state target cleavage rate” value stood at 0.000344 ± 0.013.
Turning to UAGUGACAGUGCAUCUCUGAGAGAAUAACA, the “pre-steady-state target cleavage rate” value came out at 0.000417 ± 0.01.
For the sequence UAGUCUGUCACGAACUCUGAGAGAUUAUGA, the “pre-steady-state target cleavage rate” value turned out to be 0.000116 ± 0.023.
Take UAGUGACAGUCCUUCUCUGUGAGAAUAACA: the “pre-steady-state target cleavage rate” value worked out at 0.00171 ± 0.0043.
On to UAGUGACAGUGGAAGAGUGACAGAAUAACA, for which the “pre-steady-state target cleavage rate” value came out at 0.000174 ± 0.029.
Regarding UAGUGACAGACCUUCUCUGUGAGAUUAUGA, the “pre-steady-state target cleavage rate” value came to 0.00185 ± 0.0054.
Take UAGUGUGUCACCUUCUCUGACAGAUAAACA: the “pre-steady-state target cleavage rate” value was 0.00184 ± 0.0084.
Take UAGUGACAGACCUUCUCUGUGUGAUUAACA: the “pre-steady-state target cleavage rate” value came out at 0.00168 ± 0.0072.
Consider UAGUCUGUCACCUUCUGUGACAGAUUAACA, for which the “pre-steady-state target cleavage rate” value turned out to be 0.0018 ± 0.0071.
For UAGUGACUCACCUUCUCUGAGUCAUAUUGA, the “pre-steady-state target cleavage rate” value is 0.000552 ± 0.012.
In the case of UAGUGACAGACCUCUCUCUGAGAGAUUAACA, the “pre-steady-state target cleavage rate” value stood at 0.0375 ± 0.0076.
Consider UAGUGAGUCACCUUGACUGAGAGAUUAUGA, for which the “pre-steady-state target cleavage rate” value is 0.00088 ± 0.012.
Take UAGUGACUCACCUUCAGUGAGAGAUUAAGA: the “pre-steady-state target cleavage rate” value amounted to 0.00201 ± 0.0074.
On to UAGUGACAGUGGAACUCUGACAGAUUAUCA, for which the “pre-steady-state target cleavage rate” value is under 0.0001.
Regarding UAGUGACAGUGCUUCUCUGAGAGAUUUUCA, the “pre-steady-state target cleavage rate” value is 0.000856 ± 0.0072.
As for UAGUGACAGACCUUCUCUGAGACUAUAUGA, the “pre-steady-state target cleavage rate” value was 0.000226 ± 0.047.
To UAGUGACAGUGGUUCUCUGAUAGAUUAACA belongs 0.000668 ± 0.0079; to UAGUGACAGUCCUUCUCUGACGAGAUUAACA, 0.00149 ± 0.0044; to UAGUGACAGUGGAAGACUGAGAGAUUAACA, 0.000114 ± 0.022.
As for UAGUGACAGUGCUUCUCUGAGAGAAUAACA, the “pre-steady-state target cleavage rate” value worked out at 0.0016 ± 0.0037.
The value for UAGUGACAGUCCUACUCUGAGAGAAUAACA was 0.000271 ± 0.0078; that for UAGUGACUCAGGAUCUCUGAGAGAUUAAGA was 0.000608 ± 0.011.
Take UAGUGACAGUGGUUCUCUGAGAGAUUAAAA: the “pre-steady-state target cleavage rate” value stood at 0.000147 ± 0.026.
Consider UAGUCUGAGACCUUCUCUGAGAGAUAUUGA, for which the “pre-steady-state target cleavage rate” value amounted to 0.00111 ± 0.006.
To UAGUGACAGUGGUUCUCUCAGAGAUUAACA belongs 0.00157 ± 0.0043.
The value for UAGUGACAGUCCUUCUCUGAGAGUUAAACA was 0.000351 ± 0.013; that for UAGUGACAGUGGAAGACUGAGAGUAUAACA was 0.000185 ± 0.032; that for UAGUGAGUCAGCUUCUCUGAGAGAUUAACA was 0.158 ± 0.013.
To UAGUGACACACCUUCUGACAGAGAUUAACA belongs 0.00257 ± 0.0074; to UAGUGACAGUGGUUCUCUCUCAGAUUAACA, 0.000103 ± 0.028; to UAGUCUGUCAGGAUCUCUGAGAGAUUUUGA, 0.00143 ± 0.006.
With UAGUGACAGAGCUUCUCUGAGUGAUUAACA, the “pre-steady-state target cleavage rate” value worked out at 0.00171 ± 0.008.
Regarding UAGUGACAGUGCUUCUCUGAGAGUUUAUCA, the “pre-steady-state target cleavage rate” value worked out at 0.00045 ± 0.012.

The values are drawn from the supplement of paper PMC10338343.
